PubChem BioAssay AID743454 – Peter MacCallum Cancer Centre – 2014
The deposit covers about 18,000 reagents; below is a random part of them. Of all reagents, 450 (2.5%) are marked active. 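Single biological run; no consistent viability z cut-off exists, so the class columns, not z-scores, define the calls.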 Entries without a mark were called inactive.

Screen: 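Genes whose loss kills vorinostat-resistant colon cancer cells under vorinostat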 (primary screen)
Cells: human HCT116-VR colon cancer cells, selected for vorinostat resistance
Knock-down reagent: siRNA pool against human genes, 40 nM siRNA pool
Timing: vorinostat for 24 h, read-out about 72 h after transfection
Conditions: vorinostat at 2.5 µM final
Measurement: 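Two measures, CellTiter-Fluor viability and luminescent caspase 3/7 activity, each as fold change against same-plate mock wells, mean of duplicates, then screen-wide robust z-score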
Direction: viability robust z-score: higher = more viable cells than screen typical; caspase robust z-score: higher = more caspase 3/7 activity than screen typical
Hit rule: 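Hits are knock-downs in viability class RV1/RV2 or caspase class CA1/CA2, excluding ones that killed cells in the no-drug cell-count arm; hits then retested with single siRNAs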

The opening 2 entries, ahead of the listing:
Target gene	viability hit class	caspase hit class	viability robust z-score	caspase robust z-score
ZNF547 (GeneID 284306)	no change (active)	CA1 (caspase activation)	-2.46	8.8
CNTN3 (GeneID 5067)	no change	no change	1.37	1.54

Results, from the first entry:
Target gene	viability hit class	caspase hit class	viability robust z-score	caspase robust z-score
ZNF547 (GeneID 284306)	no change (active)	CA1 (caspase activation)	-2.46	8.8
CNTN3 (GeneID 5067)	no change	no change	1.37	1.54
C1orf54 (GeneID 79630)	no change	no change	-0.73	-0.34
COX7C (GeneID 1350)	no change	no change	0.26	0.29
TSPY3 (GeneID 728137)	no change	no change	0.8	0.64
RBM11 (GeneID 54033)	no change	no change	0.54	-0.02
PPM1N (GeneID 147699)	no change	no change	-1	0.41
ZBTB6 (GeneID 10773)	no change	no change	0.28	2.31
BICRAL (GeneID 23506)	no change	no change	0.09	-0.5
ADAMTS14 (GeneID 140766)	no change	no change	-1.64	2.02
TTC31 (GeneID 64427)	no change	no change	-1.91	0.26
CFAP69 (GeneID 79846)	no change	no change	0.84	-0.52
H2BC14 (GeneID 8342)	no change	no change	-0.91	0.98
NXPE1 (GeneID 120400)	no change (active)	CA2 (caspase activation)	-1.92	5.38
TLR5 (GeneID 7100)	no change	no change	0.05	-0.6
SPACA1 (GeneID 81833)	no change	no change	0.99	-0.14
SCNM1 (GeneID 79005)	no change	no change	-0.06	-0.64
TNKS2 (GeneID 80351)	no change	no change	0.4	-0.8
ZNF432 (GeneID 9668)	no change	no change	-0.71	-0.17
OR52A5 (GeneID 390054)	no change	no change	0.13	-0.06
AMN (GeneID 81693)	no change	no change	1.05	2.12
TRIM34 (GeneID 53840)	no change	no change	1.05	-0.09
FLYWCH2 (GeneID 114984)	no change	no change	-0.61	3.78
